Assay results published in the supplement of paper PMC10849652.
The other results are listed elsewhere or left out.

Amino acid sequences for entries named in this document (tags omitted). A change or cut given only in a name is not applied to a line headed by its entry.
UniProt Q8NCS4: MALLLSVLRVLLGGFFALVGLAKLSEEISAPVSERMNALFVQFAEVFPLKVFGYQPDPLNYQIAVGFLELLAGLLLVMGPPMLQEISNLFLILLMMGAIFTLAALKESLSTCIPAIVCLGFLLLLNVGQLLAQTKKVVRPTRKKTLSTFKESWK
UniProt Q9H6X4: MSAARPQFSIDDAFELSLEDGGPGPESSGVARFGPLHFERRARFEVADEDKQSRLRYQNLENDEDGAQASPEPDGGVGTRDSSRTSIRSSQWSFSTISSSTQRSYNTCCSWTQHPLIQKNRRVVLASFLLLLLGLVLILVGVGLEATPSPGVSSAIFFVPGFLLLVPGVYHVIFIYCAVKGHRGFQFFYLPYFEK
UniProt Q9NX78: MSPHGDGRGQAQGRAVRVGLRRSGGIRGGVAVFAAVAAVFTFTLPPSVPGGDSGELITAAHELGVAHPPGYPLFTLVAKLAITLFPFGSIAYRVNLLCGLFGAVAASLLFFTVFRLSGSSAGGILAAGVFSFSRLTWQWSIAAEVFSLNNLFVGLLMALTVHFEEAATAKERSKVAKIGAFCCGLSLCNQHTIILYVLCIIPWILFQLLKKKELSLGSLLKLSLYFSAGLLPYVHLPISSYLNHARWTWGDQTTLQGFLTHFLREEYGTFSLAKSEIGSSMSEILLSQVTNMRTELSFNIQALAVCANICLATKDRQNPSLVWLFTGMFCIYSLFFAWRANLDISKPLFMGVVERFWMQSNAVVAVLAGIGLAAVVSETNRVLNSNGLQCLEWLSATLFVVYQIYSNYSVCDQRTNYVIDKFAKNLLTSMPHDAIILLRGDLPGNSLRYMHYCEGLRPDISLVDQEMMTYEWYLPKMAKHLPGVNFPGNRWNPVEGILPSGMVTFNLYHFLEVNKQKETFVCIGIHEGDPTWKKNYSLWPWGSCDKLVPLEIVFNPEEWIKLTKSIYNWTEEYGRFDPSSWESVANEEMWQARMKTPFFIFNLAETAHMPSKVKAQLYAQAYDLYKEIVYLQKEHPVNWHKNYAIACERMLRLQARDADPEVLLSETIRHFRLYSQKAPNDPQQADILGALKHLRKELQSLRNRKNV
UniProt Q969X1: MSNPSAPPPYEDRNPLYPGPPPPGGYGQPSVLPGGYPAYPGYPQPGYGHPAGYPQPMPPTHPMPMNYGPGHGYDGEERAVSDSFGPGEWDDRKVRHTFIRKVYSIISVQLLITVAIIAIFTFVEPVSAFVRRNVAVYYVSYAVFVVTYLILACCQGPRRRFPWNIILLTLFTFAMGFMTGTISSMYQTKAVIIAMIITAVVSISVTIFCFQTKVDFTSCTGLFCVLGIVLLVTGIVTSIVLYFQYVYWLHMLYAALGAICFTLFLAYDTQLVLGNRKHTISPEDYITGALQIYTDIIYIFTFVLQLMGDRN
UniProt Q5SNT2: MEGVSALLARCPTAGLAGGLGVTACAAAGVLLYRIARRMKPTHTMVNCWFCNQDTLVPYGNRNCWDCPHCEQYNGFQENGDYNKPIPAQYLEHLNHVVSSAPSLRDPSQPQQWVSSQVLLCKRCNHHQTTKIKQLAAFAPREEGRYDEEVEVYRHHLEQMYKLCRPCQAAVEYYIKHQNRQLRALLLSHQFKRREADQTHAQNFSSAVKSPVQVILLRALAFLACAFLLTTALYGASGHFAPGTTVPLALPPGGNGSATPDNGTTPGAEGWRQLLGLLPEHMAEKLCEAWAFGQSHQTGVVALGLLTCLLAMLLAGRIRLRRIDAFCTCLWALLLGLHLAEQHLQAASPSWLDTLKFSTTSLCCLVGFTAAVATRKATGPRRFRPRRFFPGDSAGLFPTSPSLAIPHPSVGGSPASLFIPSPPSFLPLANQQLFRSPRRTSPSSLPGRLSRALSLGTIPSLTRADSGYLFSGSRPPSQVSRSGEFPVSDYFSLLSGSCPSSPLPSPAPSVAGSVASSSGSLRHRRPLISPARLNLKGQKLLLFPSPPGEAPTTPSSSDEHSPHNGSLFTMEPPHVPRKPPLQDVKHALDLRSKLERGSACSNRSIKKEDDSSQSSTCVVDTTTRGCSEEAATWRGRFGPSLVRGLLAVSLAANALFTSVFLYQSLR
UniProt Q9BX74: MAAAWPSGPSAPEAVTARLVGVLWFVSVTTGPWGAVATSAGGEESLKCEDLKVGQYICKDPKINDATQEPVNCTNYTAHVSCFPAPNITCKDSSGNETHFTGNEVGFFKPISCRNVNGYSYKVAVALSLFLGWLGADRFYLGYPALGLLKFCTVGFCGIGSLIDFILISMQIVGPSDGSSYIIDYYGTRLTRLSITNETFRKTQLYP
UniProt O94876, whole entry, looked up: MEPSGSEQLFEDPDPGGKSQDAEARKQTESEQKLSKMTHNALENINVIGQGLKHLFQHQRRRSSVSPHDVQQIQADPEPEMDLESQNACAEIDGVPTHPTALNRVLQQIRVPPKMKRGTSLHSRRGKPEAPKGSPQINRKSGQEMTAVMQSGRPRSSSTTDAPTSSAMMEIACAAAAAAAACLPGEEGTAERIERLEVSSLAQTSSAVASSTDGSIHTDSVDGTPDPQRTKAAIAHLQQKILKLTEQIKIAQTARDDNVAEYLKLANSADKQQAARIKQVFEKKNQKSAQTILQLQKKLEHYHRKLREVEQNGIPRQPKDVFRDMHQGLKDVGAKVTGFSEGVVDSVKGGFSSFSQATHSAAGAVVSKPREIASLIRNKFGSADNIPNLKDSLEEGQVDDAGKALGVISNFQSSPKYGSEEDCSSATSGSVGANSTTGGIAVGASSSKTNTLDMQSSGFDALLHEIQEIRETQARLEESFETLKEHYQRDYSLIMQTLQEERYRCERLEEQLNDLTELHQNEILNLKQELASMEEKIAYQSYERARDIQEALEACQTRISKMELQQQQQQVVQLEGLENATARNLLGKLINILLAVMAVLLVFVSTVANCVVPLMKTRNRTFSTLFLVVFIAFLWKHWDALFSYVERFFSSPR
UniProt Q86XT9, whole entry, looked up: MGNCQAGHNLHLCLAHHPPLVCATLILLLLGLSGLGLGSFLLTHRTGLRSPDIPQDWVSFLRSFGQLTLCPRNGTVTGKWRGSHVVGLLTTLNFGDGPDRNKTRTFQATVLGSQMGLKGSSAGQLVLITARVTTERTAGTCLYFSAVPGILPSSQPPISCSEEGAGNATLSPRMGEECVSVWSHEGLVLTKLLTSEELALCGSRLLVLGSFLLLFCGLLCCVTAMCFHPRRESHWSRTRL
UniProt Q9BVK8: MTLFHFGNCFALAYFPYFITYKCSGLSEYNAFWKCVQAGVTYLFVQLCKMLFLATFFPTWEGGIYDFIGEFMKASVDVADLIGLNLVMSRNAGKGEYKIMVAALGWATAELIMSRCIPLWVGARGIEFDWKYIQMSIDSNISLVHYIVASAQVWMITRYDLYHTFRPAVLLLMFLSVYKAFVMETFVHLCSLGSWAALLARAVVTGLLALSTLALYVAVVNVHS
UniProt Q9BVT8: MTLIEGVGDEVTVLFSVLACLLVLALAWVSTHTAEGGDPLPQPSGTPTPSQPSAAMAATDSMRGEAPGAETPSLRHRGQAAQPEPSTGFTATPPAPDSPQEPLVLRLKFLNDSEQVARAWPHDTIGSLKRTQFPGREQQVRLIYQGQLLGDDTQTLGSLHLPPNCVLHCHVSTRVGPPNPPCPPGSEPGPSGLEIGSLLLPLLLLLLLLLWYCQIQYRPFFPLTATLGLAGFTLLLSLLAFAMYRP
UniProt Q9NWH2: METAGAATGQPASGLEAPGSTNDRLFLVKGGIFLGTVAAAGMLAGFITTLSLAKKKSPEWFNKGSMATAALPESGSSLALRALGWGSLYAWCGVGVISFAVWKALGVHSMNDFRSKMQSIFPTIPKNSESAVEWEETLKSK
UniProt Q9NR96: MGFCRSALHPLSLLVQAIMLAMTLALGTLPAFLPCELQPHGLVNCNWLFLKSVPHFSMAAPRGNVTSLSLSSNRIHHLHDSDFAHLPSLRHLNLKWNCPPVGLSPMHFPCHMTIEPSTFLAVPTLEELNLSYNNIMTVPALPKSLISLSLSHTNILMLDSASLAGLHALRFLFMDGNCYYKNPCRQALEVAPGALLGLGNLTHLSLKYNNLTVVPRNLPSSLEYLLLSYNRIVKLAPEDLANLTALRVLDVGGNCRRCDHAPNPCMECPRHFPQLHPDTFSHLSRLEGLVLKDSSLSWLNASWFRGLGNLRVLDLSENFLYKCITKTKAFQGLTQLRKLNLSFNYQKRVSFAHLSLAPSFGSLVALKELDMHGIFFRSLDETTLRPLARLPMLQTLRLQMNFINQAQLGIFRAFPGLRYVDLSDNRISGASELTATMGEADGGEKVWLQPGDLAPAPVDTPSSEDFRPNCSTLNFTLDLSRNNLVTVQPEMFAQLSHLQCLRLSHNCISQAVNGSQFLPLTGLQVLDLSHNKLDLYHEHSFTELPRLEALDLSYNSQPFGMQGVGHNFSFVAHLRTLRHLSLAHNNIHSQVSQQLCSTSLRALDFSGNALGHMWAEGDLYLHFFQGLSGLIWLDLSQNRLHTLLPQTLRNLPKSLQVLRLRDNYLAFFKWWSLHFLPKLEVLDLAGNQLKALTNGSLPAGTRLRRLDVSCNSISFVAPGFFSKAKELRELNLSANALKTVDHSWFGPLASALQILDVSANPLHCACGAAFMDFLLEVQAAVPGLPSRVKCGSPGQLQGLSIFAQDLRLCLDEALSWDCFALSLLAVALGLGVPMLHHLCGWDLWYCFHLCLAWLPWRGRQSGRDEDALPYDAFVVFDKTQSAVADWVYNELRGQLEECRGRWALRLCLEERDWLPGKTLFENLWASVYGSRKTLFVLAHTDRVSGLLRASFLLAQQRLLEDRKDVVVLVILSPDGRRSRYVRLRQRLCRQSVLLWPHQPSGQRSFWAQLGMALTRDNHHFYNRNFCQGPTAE
UniProt Q8N131: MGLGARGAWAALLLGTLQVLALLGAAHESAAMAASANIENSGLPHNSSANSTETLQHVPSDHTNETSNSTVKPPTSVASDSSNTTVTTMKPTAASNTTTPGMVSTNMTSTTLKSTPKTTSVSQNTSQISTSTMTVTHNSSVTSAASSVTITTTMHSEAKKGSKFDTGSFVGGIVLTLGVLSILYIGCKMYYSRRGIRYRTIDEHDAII
UniProt Q9HCN3: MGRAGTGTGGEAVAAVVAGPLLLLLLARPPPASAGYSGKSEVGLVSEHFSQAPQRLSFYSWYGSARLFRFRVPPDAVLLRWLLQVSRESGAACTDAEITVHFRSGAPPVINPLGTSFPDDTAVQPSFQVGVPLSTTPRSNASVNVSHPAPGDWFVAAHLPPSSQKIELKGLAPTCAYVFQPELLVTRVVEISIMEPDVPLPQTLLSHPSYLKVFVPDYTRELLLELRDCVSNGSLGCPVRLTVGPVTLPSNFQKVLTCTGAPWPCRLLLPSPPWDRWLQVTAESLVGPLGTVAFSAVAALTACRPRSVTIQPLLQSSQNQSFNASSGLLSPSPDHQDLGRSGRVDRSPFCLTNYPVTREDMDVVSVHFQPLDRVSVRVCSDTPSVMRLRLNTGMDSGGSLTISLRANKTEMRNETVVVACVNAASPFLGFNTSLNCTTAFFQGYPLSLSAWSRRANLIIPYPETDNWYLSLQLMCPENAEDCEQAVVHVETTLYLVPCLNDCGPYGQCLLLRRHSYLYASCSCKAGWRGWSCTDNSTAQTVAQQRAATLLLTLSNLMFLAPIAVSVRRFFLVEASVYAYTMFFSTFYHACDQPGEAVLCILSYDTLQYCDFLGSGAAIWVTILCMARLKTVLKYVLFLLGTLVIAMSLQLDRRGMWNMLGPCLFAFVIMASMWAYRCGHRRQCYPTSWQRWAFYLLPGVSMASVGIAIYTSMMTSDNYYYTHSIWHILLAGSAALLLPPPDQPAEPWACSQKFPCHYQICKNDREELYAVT
UniProt Q08117: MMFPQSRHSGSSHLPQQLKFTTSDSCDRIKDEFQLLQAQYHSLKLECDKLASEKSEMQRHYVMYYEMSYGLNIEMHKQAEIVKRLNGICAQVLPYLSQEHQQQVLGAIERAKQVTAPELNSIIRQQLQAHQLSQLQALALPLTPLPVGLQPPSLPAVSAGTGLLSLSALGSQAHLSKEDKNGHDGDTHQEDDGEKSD
UniProt Q5T292: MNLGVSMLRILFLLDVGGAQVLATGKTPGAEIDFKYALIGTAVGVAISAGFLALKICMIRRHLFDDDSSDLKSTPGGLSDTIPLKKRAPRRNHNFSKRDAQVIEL
UniProt Q9BSA9: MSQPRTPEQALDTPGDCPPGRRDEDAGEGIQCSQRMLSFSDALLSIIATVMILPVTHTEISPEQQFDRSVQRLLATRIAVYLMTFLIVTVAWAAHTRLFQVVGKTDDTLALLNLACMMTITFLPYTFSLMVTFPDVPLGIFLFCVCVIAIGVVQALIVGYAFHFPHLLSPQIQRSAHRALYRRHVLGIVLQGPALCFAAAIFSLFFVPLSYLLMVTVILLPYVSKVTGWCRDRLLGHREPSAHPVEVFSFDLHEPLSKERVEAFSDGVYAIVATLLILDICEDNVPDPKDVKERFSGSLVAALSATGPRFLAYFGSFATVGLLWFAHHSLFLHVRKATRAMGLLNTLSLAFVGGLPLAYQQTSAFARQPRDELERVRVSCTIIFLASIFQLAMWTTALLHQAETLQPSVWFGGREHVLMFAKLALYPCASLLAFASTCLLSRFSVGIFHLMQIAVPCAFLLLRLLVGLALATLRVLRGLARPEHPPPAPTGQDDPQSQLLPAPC

Compound: COC1=CC=C(C=C1)CN2C=CC3=C2C=C(C=C3)C(=O)NO
Assay: log2 fold change, soluble protein after heating vs DMSO (PISA); higher = thermal stabilisation; K562 cells, 10 uM, 30 min; active = over 0.2 and 3.5 SD of the protein, either way, in both replicates (recomputed)
Summary of the method: (§1)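 Soluble protein was defined as the supernatant after 21,000xg for 90 min. It came from K562 cells at 2×10^6 cells/mL given 10 μM compound for 30 min, heated in aliquots for 3 min across 48°C-58°C, pooled, and extracted in PBS with 0.5% NP-40 at 4°C, and was quantified by TMTpro 16plex LC-MS/MS with equalised channel sums. Thermal stability against control samples, from duplicates, is reported as log2 fold change.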

log2 fold change, inactive:
TMEM35B (UniProt Q8NCS4) -0.079
TMEM44 (UniProt Q2T9K0) -0.291
TMEM134 (UniProt Q9H6X4) -0.163
TMEM260 (UniProt Q9NX78) 0.1

Compound: CON(C)C(=O)N1N=C(c2cc(F)ccc2F)S[C@@]1(CCCN)c1ccccc1 [filanesib]
Assay: as above
Summary of the method: as §1

log2 fold change, inactive:
TMBIM1 (UniProt Q969X1) -0.161
TNFRSF1A (UniProt P19438) 0.19
TMEM201 (UniProt Q5SNT2) -0.09
TM2D1 (UniProt Q9BX74) -0.106
TMCC1 (UniProt O94876) -0.068
TMEM237 isoform 3 (UniProt Q96Q45) 0.482
TMEM184B (UniProt Q9Y519) -0.022
TMEM131 (UniProt Q92545) -0.026
TMEM219 (UniProt Q86XT9) -0.065
TMCO3 (UniProt Q6UWJ1) 0.107
TMEM147 (UniProt Q9BVK8) -0.081
TMUB1 (UniProt Q9BVT8) 0.11
TNFAIP2 (UniProt Q03169) -0.007
TMEM268 isoform 3 (UniProt Q5VZI3) -0.064
TMEM159 isoform 2 (UniProt Q96B96) -0.049
TMEM106C (UniProt Q9BVX2) -0.075
TMCC3 (UniProt Q9ULS5) -0.032
TMEM242 (UniProt Q9NWH2) 0.076
TLR9 isoform 4 (UniProt Q9NR96) -0.1
TMEM123 (UniProt Q8N131) 0.003
TM7SF2 (UniProt O76062) -0.142
TLR4 (UniProt O00206) -0.022
TMEM8A (UniProt Q9HCN3) 0.188

Compound: CO[C@H]1C[C@@H]2CC[C@@H](C)[C@@](O)(O2)C(=O)C(=O)N2CCCC[C@H]2C(=O)O[C@H]([C@H](C)C[C@@H]2CC[C@H](n3cnnn3)[C@H](OC)C2)CC(=O)[C@H](C)/C=C(\C)[C@@H](O)[C@@H](OC)C(=O)[C@H](C)C[C@H](C)/C=C/C=C/C=C/1C [zotarolimus]
Assay: as above
Summary of the method: as §1

log2 fold change, inactive:
TMBIM1 (UniProt Q969X1) -0.117
TLNRD1 (UniProt Q9H1K6) -0.11
TNFRSF1A (UniProt P19438) 0.056
TMEM201 (UniProt Q5SNT2) -0.067
TMCC1 (UniProt O94876) 0.059
TMCC2 (UniProt O75069) -0.098
TLE5 isoform 2 (UniProt Q08117) 0.088
TMEM219 (UniProt Q86XT9) -0.181
TMEM147 (UniProt Q9BVK8) 0.222
TMUB1 (UniProt Q9BVT8) 0.01
TMEM268 isoform 3 (UniProt Q5VZI3) 0.104
TMEM242 (UniProt Q9NWH2) -0.069
TLR9 isoform 4 (UniProt Q9NR96) 0.123
TM7SF2 (UniProt O76062) -0.018
TMEM127 (UniProt O75204) -0.004
TLR4 (UniProt O00206) -0.252
TMEM8A (UniProt Q9HCN3) -0.093

Compound: COc1cc(C(=O)O)ccc1NC(=O)[C@@H]1N[C@@H](CC(C)(C)C)[C@](C#N)(c2ccc(Cl)cc2F)[C@H]1c1cccc(Cl)c1F [idasanutlin]
Assay: as above
Summary of the method: as §1

log2 fold change, inactive:
TMBIM1 (UniProt Q969X1) 0.013
TMEM273 isoform 2 (UniProt Q5T292) 0.06
TMCC1 (UniProt O94876) 0.072
TMEM131 (UniProt Q92545) -0.053
TMCC2 (UniProt O75069) 0.025
TLE5 isoform 2 (UniProt Q08117) -0.167
TMEM219 (UniProt Q86XT9) -0.017
TMEM147 (UniProt Q9BVK8) -0.187
TMUB1 (UniProt Q9BVT8) 0.06
TMEM268 isoform 3 (UniProt Q5VZI3) -0.135
TMEM79 (UniProt Q9BSE2) 0.127
TMEM94 isoform 2 (UniProt Q12767) 0.056
TMEM242 (UniProt Q9NWH2) 0.102
TLR9 isoform 4 (UniProt Q9NR96) 0.017
TMEM123 (UniProt Q8N131) -0.045
TMEM134 (UniProt Q9H6X4) 0.044
TMEM127 (UniProt O75204) -0.019
TMEM175 (UniProt Q9BSA9) -0.352
TMEM260 (UniProt Q9NX78) 0.15

Compound: COc1cc(Nc2ncc3c(n2)-c2ccc(Cl)cc2C(c2c(F)cccc2OC)=NC3)ccc1C(=O)O [alisertib]
Assay: as above
Summary of the method: as §1

log2 fold change, inactive:
TMBIM1 (UniProt Q969X1) -0.018
TMEM201 (UniProt Q5SNT2) -0.004
TMCC1 (UniProt O94876) -0.192
TMEM237 isoform 3 (UniProt Q96Q45) -0.31
TMEM98 (UniProt Q9Y2Y6) -0.448
TMEM184B (UniProt Q9Y519) 0
TLE5 isoform 2 (UniProt Q08117) 0.019
TMCO3 (UniProt Q6UWJ1) -0.158
TMEM35B (UniProt Q8NCS4) -0.19
TMEM147 (UniProt Q9BVK8) 0.143
TMUB1 (UniProt Q9BVT8) -0.147
TMEM268 isoform 3 (UniProt Q5VZI3) 0.014
TMEM159 isoform 2 (UniProt Q96B96) -0.034
TMCC3 (UniProt Q9ULS5) -0.282
TMEM242 (UniProt Q9NWH2) -0.043
TLR9 isoform 4 (UniProt Q9NR96) 0.045
TMEM123 (UniProt Q8N131) -0.095
TMEM134 (UniProt Q9H6X4) -0.038
TMPO (UniProt G5E972) 0.05
TMEM8A (UniProt Q9HCN3) -0.153
TMEM260 (UniProt Q9NX78) -0.044
